Laboratory results published in paper PMC11213338.
These are yes or no findings as the source states them, for the method shown. Binding can be weak; no strength is given. Where a sequence is shown, tags or fusion partners need not be part of it.

Target: GST-γb_(H85A) (barley stripe mosaic virus (ND18 strain))
Test: pull-down; GST pull-down: purified GST-tag protein with His-tag protein in 50 mM Tris-HCl pH 6.8, 500 mM NaCl, 1.5% glycerol, 0.6% Triton-X 100, 0.1% Tween 20, 3 h at 4°C; with or without 10 μg RNaseA, Zn^2+ 2-200 μM, 20 μM other divalent cations, or EDTA (200 μM in Fig 4D and 4E); blots with anti-GST or anti-His; both purified

B1: CP-His (protein, UniProt P04866 1-198)
chain: MPNVSLTAKGGGHYIEDQWDTQVVEAGVFDDWWVHVEAWNKFLDNLRGINFSVASSRSQVAEYLAALDRDLPADVDRRFAGARGQIGSPNYLPAPKFFRLDKRTIAELTRLSRLTDQPHNNRDIELNRAKRATTNPSPPAQAPSENLTLRDVQPLKDSALHYQYVLIDLQSARLPVYTRKTFERELALEWIIPDAEEA
How did the binding turn out when B1 was run?
The binding was “binds weakly”.
